Measurements taken from patent US20080306038A1, “Compositions and Methods for Modulating Inflammation Using Fluoroquinolones” (priority 2007, published 2008).
At least one structure is not confirmed: it was looked up by name or label, or the drawing left a doubt.

Legend:
Assay type in all cases: cell-based, human
MCP-1 = assay: LPS-stimulated MCP-1 production in THP-1 monocytes (multiplex Luminex); conditions: FIG. 1, THP-1 monocytes
Description: (§1) Human THP-1 monocytes (ATCC TIB 202) were purchased from American Type Culture Collection (Manassas, Va.) and maintained in RPMI 1640 medium (Invitrogen, Carlsbad, Calif.) supplemented with 10% fetal bovine serum (“FBS”, Invitrogen, Carlsbad, Calif.), 100 U/mL of penicillin (Invitrogen, Carlsbad, Calif.), and 100 μg/mL of streptomycin (Invitrogen, Carlsbad, Calif.) at 37° C. in a humidified incubator with 5% CO2. THP-1 cells were pre-cultured in RPMI 1640 medium containing 10% dialyzed serum for 24 h. […] Each treatment was performed in triplicate.
(§2) Samples were analyzed using multiplex bead technology, which utilizes microspheres as the solid support for immunoassays and allows the analysis of all cytokines from each sample (D. A. Vignali, J. Immunol. Methods, Vol. 243, 243-255 (2000)). Sixteen cytokines were measured according to the manufacturer's instructions. Briefly, 50 μL of medium samples were incubated with antibody-coated capture beads overnight at 4° C. […] Samples were analyzed using Luminex 200™ (Luminex, Austin, Tex.) and Beadview software v1.0 (Upstate Cell Signaling Solutions, Temecula, Calif.). Standard curves of known concentrations of recombinant human cytokines were used to convert fluorescence units (median fluorescence intensity) to cytokine concentration in pg/mL. […]
(§3) All cytokine concentrations (pg/mL) were expressed as mean ±standard deviation. […]

Fractalkine = assay: LPS-stimulated fractalkine production in THP-1 monocytes (multiplex Luminex); conditions: 0.1-30 μg/mL, 18 hours
Description: as §1, §2, §3

RANTES = assay: LPS-stimulated RANTES production in THP-1 monocytes (multiplex Luminex); conditions: 0.1-30 μg/mL, 18 hours
Description: as §1, §2, §3

MIP-1α = assay: LPS-stimulated MIP-1α production in THP-1 monocytes (multiplex Luminex); conditions: FIG. 1, THP-1 monocytes
Description: as §1, §2, §3

IL-1β = assay: LPS-stimulated IL-1β production in THP-1 monocytes (multiplex Luminex); conditions: FIG. 1, THP-1 monocytes
Description: as §1, §2, §3

IL-8 = assay: LPS-stimulated IL-8 production in THP-1 monocytes (multiplex Luminex); conditions: FIG. 1, THP-1 monocytes
Description: as §1, §2, §3

IP-10 = assay: LPS-stimulated IP-10 production in THP-1 monocytes (multiplex Luminex); conditions: FIG. 1, THP-1 monocytes
Description: as §1, §2, §3

COc1c(N2C[C@@H]3CCCN[C@@H]3C2)c(F)cc2c(=O)c(C(=O)O)cn(C3CC3)c12 [Moxifloxacin, moxifloxacin, reference compound]
Comparison of moxifloxacin and compound having Formula IV, effect on MCP-1 after LPS stimulation (MCP-1): comparable effects | Effect on LPS-stimulated production of fractalkine (Fractalkine): Neither moxifloxacin nor compound having Formula IV altered | Effect on LPS-stimulated production of RANTES (RANTES): Neither moxifloxacin nor compound having Formula IV altered | Comparison of moxifloxacin and compound having Formula IV, effect on MIP-1α after LPS stimulation (MIP-1α): comparable effects | Comparison of moxifloxacin and compound having Formula IV, effect on IL-1β after LPS stimulation (IL-1β): comparable effects | Comparison of moxifloxacin and compound having Formula IV, effect on IL-8 after LPS stimulation (IL-8): comparable effects | Comparison of moxifloxacin and compound having Formula IV, effect on IP-10 after LPS stimulation (IP-10): comparable effects
